Measurements as given in publication PMC9030932, “Development of Dibenzothiazepine Derivatives as Multifunctional Compounds for Neuropathic Pain” (Pharmaceuticals, 2022).

Amino acid sequences for entries named in this document (tags omitted).
UniProt Q01959, whole entry: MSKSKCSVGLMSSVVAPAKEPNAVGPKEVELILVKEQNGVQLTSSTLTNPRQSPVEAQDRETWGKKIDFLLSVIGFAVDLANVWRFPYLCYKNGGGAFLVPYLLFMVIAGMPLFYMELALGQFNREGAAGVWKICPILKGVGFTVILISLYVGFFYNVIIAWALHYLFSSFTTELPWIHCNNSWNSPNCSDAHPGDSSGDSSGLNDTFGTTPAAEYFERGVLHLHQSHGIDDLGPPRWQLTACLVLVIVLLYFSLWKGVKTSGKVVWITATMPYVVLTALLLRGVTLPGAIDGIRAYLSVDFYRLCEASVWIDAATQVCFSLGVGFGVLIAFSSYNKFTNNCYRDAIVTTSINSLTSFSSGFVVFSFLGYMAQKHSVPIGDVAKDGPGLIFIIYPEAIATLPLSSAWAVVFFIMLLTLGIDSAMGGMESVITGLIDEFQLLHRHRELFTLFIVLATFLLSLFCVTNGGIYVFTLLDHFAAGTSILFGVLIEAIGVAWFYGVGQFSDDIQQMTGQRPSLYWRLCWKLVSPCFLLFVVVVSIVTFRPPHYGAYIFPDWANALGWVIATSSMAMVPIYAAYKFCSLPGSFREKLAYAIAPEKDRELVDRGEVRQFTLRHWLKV
UniProt P31645, whole entry: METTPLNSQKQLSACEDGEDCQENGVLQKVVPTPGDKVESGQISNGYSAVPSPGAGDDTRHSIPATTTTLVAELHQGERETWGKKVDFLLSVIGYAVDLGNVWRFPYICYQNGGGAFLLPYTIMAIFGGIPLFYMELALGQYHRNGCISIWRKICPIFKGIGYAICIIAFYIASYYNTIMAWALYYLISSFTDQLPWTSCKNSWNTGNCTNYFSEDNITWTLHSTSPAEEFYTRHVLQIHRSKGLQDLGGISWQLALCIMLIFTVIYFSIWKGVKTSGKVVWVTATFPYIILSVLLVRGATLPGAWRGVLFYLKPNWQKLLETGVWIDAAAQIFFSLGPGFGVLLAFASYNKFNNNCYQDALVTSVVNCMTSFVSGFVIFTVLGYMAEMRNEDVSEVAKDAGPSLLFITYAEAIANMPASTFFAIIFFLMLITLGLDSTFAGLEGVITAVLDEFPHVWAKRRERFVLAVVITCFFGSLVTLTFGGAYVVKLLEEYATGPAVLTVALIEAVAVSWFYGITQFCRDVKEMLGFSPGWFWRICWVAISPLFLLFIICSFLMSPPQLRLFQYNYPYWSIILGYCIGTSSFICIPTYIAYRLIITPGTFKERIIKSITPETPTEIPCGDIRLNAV
UniProt P23975, whole entry: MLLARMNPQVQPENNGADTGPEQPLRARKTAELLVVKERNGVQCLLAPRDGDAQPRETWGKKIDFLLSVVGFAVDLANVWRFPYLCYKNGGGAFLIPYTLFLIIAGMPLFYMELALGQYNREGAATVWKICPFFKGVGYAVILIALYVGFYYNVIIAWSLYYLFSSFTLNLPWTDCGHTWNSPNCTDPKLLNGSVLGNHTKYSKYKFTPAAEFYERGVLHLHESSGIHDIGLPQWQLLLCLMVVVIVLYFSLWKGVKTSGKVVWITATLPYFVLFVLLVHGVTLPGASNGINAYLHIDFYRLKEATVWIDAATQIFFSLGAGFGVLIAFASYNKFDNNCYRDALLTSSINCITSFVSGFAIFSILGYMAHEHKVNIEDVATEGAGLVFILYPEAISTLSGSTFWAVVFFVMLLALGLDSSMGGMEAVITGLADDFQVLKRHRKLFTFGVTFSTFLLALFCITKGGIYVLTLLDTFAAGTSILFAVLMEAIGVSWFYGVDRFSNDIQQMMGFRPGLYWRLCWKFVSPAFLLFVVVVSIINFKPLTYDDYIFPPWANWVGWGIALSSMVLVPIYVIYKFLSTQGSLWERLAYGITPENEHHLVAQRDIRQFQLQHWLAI

Legend:
Format in all cases: cell-based
[1] = target: human dopamine transporter (hDAT) (Homo sapiens, UniProt Q01959); assay: Neurotransmitter transporter uptake assay, HEK-hDAT; conditions: read-out: % Inhibition at 10 μM hDAT
[2] = target: human serotonin transporter (hSERT) (Homo sapiens, UniProt P31645); assay: Neurotransmitter transporter uptake assay, HEK-hSERT; conditions: read-out: % Inhibition at 10 μM hSERT
[3] = target: human norepinephrine transporter (hNET) (Homo sapiens, UniProt P23975); assay: Neurotransmitter transporter uptake assay, HEK-hNET; conditions: read-out: % Inhibition at 10 μM hNET

Compound `CN1c2ccccc2C(NCCCCCCC(=O)O)c2ccc(Cl)cc2S1(=O)=O` (stereo not drawn) [Tianeptine, reference compound] has an inhibition at 10 µM [1] of 20.3 ± 6.2%, an inhibition at 10 µM [2] of 16.6 ± 10% and an inhibition at 10 µM [3] of 27.2 ± 6.2%.
